Results are given in words; binding and its absence hold for the method and conditions named. In cells and extracts the contact can be indirect. Binding can be weak; no strength is given. Sequences can lack the tags named with a protein.
Target: T1, Flag−RFP (pFlag-CMV2-human RFP; Ret finger protein) (human) (UniProt P14373)
T1 sequence: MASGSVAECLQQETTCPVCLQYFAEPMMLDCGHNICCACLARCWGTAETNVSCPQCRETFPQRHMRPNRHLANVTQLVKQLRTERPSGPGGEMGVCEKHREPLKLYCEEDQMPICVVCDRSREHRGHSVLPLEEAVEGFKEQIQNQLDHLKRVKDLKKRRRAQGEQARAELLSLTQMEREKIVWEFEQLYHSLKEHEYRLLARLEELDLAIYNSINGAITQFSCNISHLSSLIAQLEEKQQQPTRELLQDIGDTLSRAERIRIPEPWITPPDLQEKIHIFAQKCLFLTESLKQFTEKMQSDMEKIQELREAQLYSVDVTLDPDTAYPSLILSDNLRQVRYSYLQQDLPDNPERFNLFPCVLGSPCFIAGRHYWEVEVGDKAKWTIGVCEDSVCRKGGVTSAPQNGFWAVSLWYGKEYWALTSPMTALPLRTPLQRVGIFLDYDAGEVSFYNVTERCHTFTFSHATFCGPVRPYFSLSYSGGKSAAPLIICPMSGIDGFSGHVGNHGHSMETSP
Assay: co-IP; HEK293T cells expressing Flag−RFP and HA−PPAR-γ; lysate incubated with primary antibody (anti-HA or anti-Flag) overnight at 4 °C, protein A/G beads 2 h at 4 °C; immunoblot with anti-Flag or anti-HA

binding: binds
Substance: HA−PPAR-γ (pCS4-HA-PPAR-γ)

— article PMC12508092
